Values from PubChem BioAssay AID686943 (Drosophila RNAi Screening Center, 2013).
The deposit covers about 23,000 reagents; below is a random part of those that have a named target and a result. 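Extra replicates exist only for a retested subset of genes; insulin dose and duration not given; both raised and lowered dpERK matter.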 A plus sign joins genes that one reagent is predicted to hit. Further read-outs or replicates are left out here. No sequences are given here. The record does not give: the amount of reagent, the time to read-out.

Assay: 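Search across the genome for regulators of signalling from receptor tyrosine kinase to ERK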 (primary screen)
Cells: Drosophila S2R+ haemocyte-like cells expressing YFP-tagged ERK (Rolled)
Reagents: long dsRNA against Drosophila genes
Conditions: insulin stimulation versus unstimulated cells; dose and duration not given
Measured: 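Antibody staining for doubly phosphorylated ERK divided by ERK-YFP signal, as plate z-scores, in insulin-treated and untreated cells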
Scale: replicate 1, z-score of dpERK with insulin and replicate 2, z-score of dpERK with insulin: higher = more active ERK per ERK-YFP after insulin; replicate 1, z-score of dpERK under basal conditions: higher = more basal active ERK per ERK-YFP

| predicted target | dsRNA | replicate 1, z-score of dpERK with insulin | replicate 2, z-score of dpERK with insulin | replicate 1, z-score of dpERK under basal conditions |
| --- | --- | --- | --- | --- |
| CG3604 | DRSC00618 | -0.82 | -0.61 | -0.03 |
| CG4198 | DRSC18354 | 0.62 | 0.65 | 1.24 |
| Drs (Drosomycin) | DRSC08657 | 0.08 | -0.06 | -0.2 |
| adp (adipose) | DRSC06916 | 0.49 | 0.05 | 0.05 |
| Ir76b (Ionotropic receptor 76b) | DRSC10831 | -0.86 | 0.43 | -0.12 |
| loco (locomotion defects) | DRSC15202 | 0.85 | -0.26 | 0.83 |
| loco (locomotion defects) | DRSC16989 | 0.52 | 0.43 | -0.29 |
| Swt1 (Swt1 RNA endoribonuclease) | DRSC20028 | -1.4 | 0.26 | 0.41 |
| CG4297 | DRSC00651 | 0.24 | 0.56 | -0.89 |
| CAP | DRSC05215 | -0.15 | -0.25 | -0.82 |
| CAP | DRSC06743 | 0.85 | 0.69 | 1.1 |
| CAP | DRSC06744 | 0.17 | 0.4 | -0.65 |
| CAP | DRSC06745 | -0.35 | 0.16 | 0.19 |
| CAP | DRSC06846 | 0.28 | 0.6 | 0.04 |
| Or19a (Odorant receptor 19a) | DRSC20684 | -0.04 | 0.07 | 1.15 |
| CG12320 | DRSC14498 | 0.5 | 0.13 | 0.03 |
| BubR1 (Bub1-related kinase) | DRSC04838 | -0.88 | 1.3 | -0.71 |
| CG13069 | DRSC09952 | -0.22 | 0.42 | -0.56 |
| PGAP5 (Post-GPI attachment to proteins 5) | DRSC03089 | 1.24 | 0.25 | 2.09 |
| Usp5 (Ubiquitin specific protease 5) | DRSC08244 | -0.8 | -0.52 | 0.09 |
| CG40006 | DRSC03787 | -0.77 | -0.01 | 0.02 |
| CG40006 | DRSC03809 | 1.59 | 0.55 | 1.02 |
| CG40006 | DRSC03814 | -1.34 | 0.07 | -0.32 |
| CG40006 | DRSC03817 | 0.92 | 0.41 | 0.23 |
| Tpst (Tyrosylprotein sulfotransferase) | DRSC18989 | 0.2 | 1.01 | 1.45 |
| Tpst (Tyrosylprotein sulfotransferase) | DRSC19696 | 0.42 | 0.14 | 0.05 |
| Tpst (Tyrosylprotein sulfotransferase) | DRSC19723 | -2.28 | -2.24 | -2.03 |
| Tpst (Tyrosylprotein sulfotransferase) | DRSC19724 | -4.8 | -1.11 | 0.31 |
| Tpst (Tyrosylprotein sulfotransferase) | DRSC22621 | -4.9 | -4.94 | -3.04 |
| Coa7 (Cytochrome c oxidase assembly factor 7) | DRSC20967 | -0.48 | 0.05 | 0.4 |
| CG4612 | DRSC04478 | -1.92 | -0.63 | 0.45 |
| Nlg2 (Neuroligin 2) | DRSC00957 | 0.07 | -0.06 | 1.31 |
| Nlg2 (Neuroligin 2) | DRSC03578 | 0.17 | -0.66 | 1.76 |
| CG17169 | DRSC20905 | -0.23 | -0.51 | -0.43 |
| CG31259 | DRSC14366 | -0.07 | -0.02 | 0.31 |
| CG8100 | DRSC10961 | 0.21 | 0.23 | -0.06 |
| CG6569 | DRSC16067 | 0.47 | -0.37 | -0.33 |
| Hsp26 (Heat shock protein 26) | DRSC11189 | -0.15 | 0.46 | 0.16 |
| CG9609 | DRSC20199 | -1.1 | 0.14 | -0.54 |
| Osi2 (Osiris 2) | DRSC12174 | 0.35 | 0.59 | 0.36 |
| sage (salivary gland-expressed bHLH) | DRSC14580 | 0.07 | 0.86 | -0.52 |
| Sry-delta (Serendipity delta) | DRSC16869 | -0.61 | 1.68 | 1.7 |
| CG3036 | DRSC00260 | 0.52 | 0.65 | 0.6 |
| CG3036 | DRSC00562 | 0.25 | -0.45 | 0.3 |
| Ste:CG33238 + Ste:CG33241 + Ste:CG33236 + 11 more | DRSC19004 | -0.12 | 0.9 | 1.16 |
| Ste:CG33238 + Ste:CG33241 + Ste:CG33236 + 11 more | DRSC21260 | 0.76 | -0.03 | 0.09 |
| PhKgamma (Phosphorylase kinase gamma) | DRSC20268 | 0.33 | 0.52 | -0.55 |
| CG5966 | DRSC18394 | 0.72 | 0.22 | -0.03 |
| Mst36Fa (Male-specific transcript 36Fa) | DRSC21564 | 0.68 | -0.09 | -0.42 |
| CG5003 | DRSC15694 | 0.16 | -0.35 | -1.05 |
| CG31288 | DRSC14667 | 0.15 | -0.52 | -0.4 |
| CG31418 | DRSC21780 | 0.01 | -0.36 | -0.48 |
| Membrin | DRSC10448 | 0.24 | 0.11 | 4.78 |
| Ada2a + Polr2D | DRSC16206 | 0.24 | 0 | -1.07 |
| Ada2a + Polr2D | DRSC21598 | 3.44 | 2.25 | -0.35 |
| ALiX (ALG-2 interacting protein X) | DRSC14564 | 0.44 | -0.25 | -0.14 |
| gpp (grappa) | DRSC12515 | -2.22 | -0.46 | 0.47 |
| gpp (grappa) | DRSC12516 | -2.67 | -1.9 | 1.19 |
